The source of these data is publication doi:10.1101/2024.08.19.608523 (bioRxiv, 2024).

Amino acid sequences for entries named in this document (tags omitted). A change or cut given only in a name is not applied to a line headed by its entry.
UniProt Q2XVP4: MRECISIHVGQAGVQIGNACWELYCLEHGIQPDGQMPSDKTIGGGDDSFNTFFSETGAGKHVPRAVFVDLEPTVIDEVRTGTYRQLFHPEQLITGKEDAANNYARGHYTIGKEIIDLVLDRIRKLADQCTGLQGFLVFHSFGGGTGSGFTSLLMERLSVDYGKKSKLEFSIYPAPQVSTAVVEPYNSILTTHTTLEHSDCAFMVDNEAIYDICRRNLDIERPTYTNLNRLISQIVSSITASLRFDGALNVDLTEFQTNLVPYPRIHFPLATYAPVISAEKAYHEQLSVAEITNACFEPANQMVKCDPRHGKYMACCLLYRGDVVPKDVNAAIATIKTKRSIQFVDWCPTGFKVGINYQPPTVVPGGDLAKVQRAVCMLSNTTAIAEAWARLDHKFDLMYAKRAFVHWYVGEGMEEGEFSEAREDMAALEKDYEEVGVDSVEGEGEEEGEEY

The target of the experiment is α-tubulin (in the microtubule) (porcine) (UniProt Q2XVP4). The experiment can be described thus: cryo-EM structure.

These are yes or no findings as the source states them, for the method shown. A result given as binding can be weak or reduced; the word gives no strength.

B1: GAS2-GAR domain (residues 198-314) (domain or fragment)
chain: STGNLLDDAVKRISEDPPCKCPTKFCVERLSQGRYRVGEKILFIRMLHNKHVMVRVGGGWETFAGYLLKHDPCRMLQISRVDGKTSPVQSKSPTLKDMNPDNYLVVSATYKAKKEIK
Take B1: the binding entry is listed as “binds”.
